# “And” between values parts separate entries of the source, which are not always exact repeats. Identical values can stand only once.
# Test system: Raw264.7 (murine macrophages)
# Test: Cytotoxicity, resazurin reduction assay, Raw264.7
# Assay type: cell-based
# Conditions: confirmation screen, powdered form; ratio CC50 / IC50
# Description: (§1) For cytotoxicity testing, they were seeded (90 µL) in 96-well plates at a density of 1x10^4 cells/well, in duplicate, and allowed to adhere overnight. […] Cell viability was then assessed using the resazurin reduction assay, as described above. […] Data were analysed using Microsoft Excel and GraphPad Prism 8.0. Nonlinear regression with a sigmoidal dose-response fit model was applied to the data to determine IC50 and CC50 values. Results represent the mean ± standard deviation (SD) from two independent experiments performed in duplicate.
row,Compound,SI Raw
1,"CN(C)C(=O)/C=C/C(=O)c1ccc(SCc2ccc(Cl)cc2Cl)cc1 [OGHL00006, (E)-4-(4-((2,4-dichlorobenzyl)thio)phenyl)-N,N-dimethyl-4-oxobut-2-enamide]",3.7
2,"CNS(=O)(=O)c1ccccc1Nc1nc(Nc2cc(OC)c(OC)cc2C)ncc1Br [OGHL00133, 2-((5-bromo-2-((4,5-dimethoxy-2-methylphenyl)amino)pyrimidin-4-yl)amino)-N-methylbenzenesulfonamide]",642.86
3,"Cn1cc(-c2cnc3[nH]cc(-c4cn(Cc5cccc(F)c5F)nn4)c3c2)cn1 [OGHL00169, 3-(1-(2,3-difluorobenzyl)-1H-1,2,3-triazol-4-yl)-5-(1-methyl-1H-pyrazol-4-yl)-1H-pyrrolo[2,3-b]pyridine]",48.28

# Test system: Vero E6 (African green monkey kidney) cells
# Test: Cytotoxicity, resazurin reduction assay, Vero
# Assay type: cell-based
# Conditions: confirmation screen, powdered form
# Description: as §1
row,Compound,SI Vero
1,"CN(C)C(=O)/C=C/C(=O)c1ccc(SCc2ccc(Cl)cc2Cl)cc1 [OGHL00006, (E)-4-(4-((2,4-dichlorobenzyl)thio)phenyl)-N,N-dimethyl-4-oxobut-2-enamide]",> 2 and 2

# Test system: HepG2 (human hepatocyte carcinoma) cells
# Test: Cytotoxicity, resazurin reduction assay, HepG2
# Assay type: cell-based
# Conditions: primary screen; CC50 HepG2/IC50 T. b. brucei
# Description: Vero E6 (African green monkey kidney), Raw264.7 (murine macrophages) and HepG2 (human hepatocyte carcinoma) cell lines, sourced from the American Type Culture Collection, were cultured in DMEM supplemented with 10% (v/v) heat-inactivated fetal bovine serum, 1% (v/v) non-essential amino acids, and 1% (v/v) penicillin-streptomycin. Cells were maintained at 37 °C in a 5% CO2 atmosphere. For cytotoxicity testing, they were seeded (90 µL) in 96-well plates at a density of 1x10^4 cells/well, in duplicate, and allowed to adhere overnight. Serial dilutions (50-0.08 µM) of the compounds were prepared, and 10 µL of each were incubated with the monolayer for 48 hours. Podophyllotoxin was tested as a positive control at 10 μM and 0.5% DMSO (100% cell viability) was used as negative control. Cell viability was then assessed using the resazurin reduction assay, as described above. The 50% cytotoxic concentration (CC50) was calculated using GraphPad Prism software (version 8.0), and selectivity indices (SIs) were determined by dividing the […].
# Data were analysed using Microsoft Excel and GraphPad Prism 8.0. Nonlinear regression with a sigmoidal dose-response fit model was applied to the data to determine IC50 and CC50 values. Results represent the mean ± standard deviation (SD) from two independent experiments performed in duplicate.
row,Compound,SI (HepG2)
1,Oc1ccc2[nH]cc(CCCCN3CC=C(c4ccccc4)CC3)c2c1 [OGHL00007],>9.47
2,CCC(C)[S+]([O-])c1ccc(-c2nc3ccncc3[nH]2)c(OC)c1 (stereo not drawn) [OGHL00019],7.97
3,COc1ccc(C(=O)N2CCC(C)(C)c3cc(C4=NNC(=O)SC4C)ccc32)cc1OC (stereo not drawn) [OGHL00025],>5.42
4,CCN=C(c1ccc(OC)c(OC)c1)N1CCCc2cc(C3=NNC(=O)SC3C)ccc21 (stereo not drawn) [OGHL00032],9.6
5,CN(CCCCc1ccc(F)cc1)CCC(=O)c1ccc2[nH]c(=O)oc2c1 [OGHL00087],3.16
6,CCCc1nn(C)c2c(=O)[nH]c(-c3cc(C(=O)N=C(N)N)ccc3OCC)nc12 [OGHL00103],>6.38
7,CNC(=O)c1cc(Oc2ccc(NC(=O)Nc3cc(C(F)(F)F)ccc3-n3ccnc3)cc2)ccn1 [OGHL00130],4.2
8,CNS(=O)(=O)c1ccccc1Nc1nc(Nc2ccc(N3CCOCC3)cc2OC)ncc1Br [OGHL00134],> 10 and 16.84
9,COc1cccc(CNc2nnc(-c3c[nH]c4ncccc34)o2)c1 [OGHL00138],> 10 and 14.87
10,Cc1ccccc1-c1ccc(-c2nc(-c3ccc(CN(C)CCC(=O)O)c(F)c3)no2)cc1OCC1CC1 [OGHL00165],>5.63
11,CCOc1cc(CCNC(=O)C[C@H]2S[C@@H](c3ccc(C#Cc4ccccc4)cc3)N(c3cccc(C(N)=O)c3)C2=O)ccc1O [OGHL00183],5.2
12,COc1ccc(OC)c(CCNC(=O)c2cn3cc(-c4cc(OC)ccc4OC)nc3s2)c1 [OGHL00225],>5.07
13,COc1cc(OC)c(CCNC(=O)c2cn3cc(-c4cc(OC)ccc4OC)nc3s2)c(OC)c1 [OGHL00227],> 10 and > 17.85
14,COc1cc(OC)c(CCNC(=O)c2ccc3nc(-c4cc(OC)ccc4OC)cn3c2)c(OC)c1 [OGHL00231],> 5.5
15,COc1ccc(OCCCO)cc1-c1cn2cc(-c3nnc(NCCCCc4ccccc4)o3)ccc2n1 [OGHL00236],1.5
16,COc1cc(OC)c(CCNC(=O)c2cn3cc(-c4cc(OCC#N)ccc4OC)nc3s2)c(OC)c1 [OGHL00238],0.75
17,COc1ccc(OCC(N)=O)cc1-c1cn2cc(C(=O)NCCc3c(OC)cccc3OC)sc2n1 [OGHL00241],4.05

# From paper PMC12622802, “Potent kinase inhibitors from the Merck KGaA OGHL: Novel hits against Trypanosoma brucei with potential for repurposing” (PLOS Neglected Tropical Diseases, 2025)
